Where “and” joins values, the source holds several entries; their conditions need not be identical. Equal entries are not always repeated. Not every detail of the peptide structures is certain; ends, links or a residue may be inferred.
Assay: Body weight of NIDDM patients during four weeks of continuous subcutaneous infusion of GLP-1(7-36) amide, compared with two weeks of intensive insulin therapy before and after
Type: in vivo

## CC[C@H](C)[C@H](NC(=O)[C@H](Cc1ccccc1)NC(=O)[C@H](CCC(=O)O)NC(=O)[C@H](CCCCN)NC(=O)[C@H](C)NC(=O)[C@H](C)NC(=O)[C@H](CCC(N)=O)NC(=O)CNC(=O)[C@H](CCC(=O)O)NC(=O)[C@H](CC(C)C)NC(=O)[C@H](Cc1ccc(O)cc1)NC(=O)[C@H](CO)NC(=O)[C@H](CO)NC(=O)[C@@H](NC(=O)[C@H](CC(=O)O)NC(=O)[C@H](CO)NC(=O)[C@@H](NC(=O)[C@H](Cc1ccccc1)NC(=O)[C@@H](NC(=O)CNC(=O)[C@H](CCC(=O)O)NC(=O)[C@H](C)NC(=O)[C@@H](N)Cc1c[nH]cn1)[C@@H](C)O)[C@@H](C)O)C(C)C)C(=O)N[C@@H](C)C(=O)N[C@@H](Cc1c[nH]c2ccccc12)C(=O)N[C@@H](CC(C)C)C(=O)N[C@H](C(=O)N[C@@H](CCCCN)C(=O)NCC(=O)N[C@@H](CCCNC(=N)N)C(N)=O)C(C)C [GLP-1 (7-36) amide, GLP-1(7-36) amide]
After four weeks of continuous subcutaneous infusion, 1.2 pmol/kg/minute, rows = individual patients, last row mean ± SEM
  Patient Weight (kg) GLP-1 4 weeks: 92.0 kg and 108.0 kg and 91.5 kg and 80.0 kg and 92.9 ± 5.8 kg
Change during four weeks of continuous subcutaneous infusion, 1.2 pmol/kg/minute, individual patients, last row mean ± SEM
  Weight Change (kg) GLP-1 4 weeks: -7.0 kg and -3.0 kg and -2.0 kg and -1.9 kg and -3.5 ± 1.2 kg
Peripheral administration to obese patients
  effect on body weight, in words: significant reduction in body weight

— EP1306092A2, “Use of GLP-1 and analogs administered peripherally, in regulation of obesity” (Eli Lilly & Company, priority 1996, dated 2003)
